Among all 330,000 compounds or so, about 7,700 (2.3%) were called active. The inconclusive results got no clear call from the source; some entries with a clear call stand among them for comparison. The call rests on the fitted dose curve; in most records, active means well fitted inhibition curve with a large enough effect; inconclusive means small, poorly fitted or top-dose-only effect, or effect the other way; inactive means flat fitted curve, though single readings scatter. Potencies of inconclusive entries are doubtful fits and often do not repeat.
Assay: qHTS screen for small molecules that inhibit ELG1-dependent DNA repair in human embryonic kidney (HEK293T) cells expressing luciferase-tagged ELG1; further: nearly all actives have a fitted effect of over 55% in size
Conditions: HEK293T ELG1-luciferase reporter, luminescence, 16 h, DNA damage induced by 5-fluorouridine; series mostly up to 46.1 µM
In short: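 Luminescence from the luciferase reporter, measured 30 min after ONE-Glo reagent at room temperature, was the read-out. Beforehand, 2,000 cells per well were exposed for 16 hr at 37 °C to 5-fluorouridine together with compound or vehicle.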
Potency means the concentration at half of the fitted maximal effect.

| Structure (SMILES) | Potency |
| --- | --- |
| CCOc1cc(/C=N/NC(=O)C(N)=O)cc(Br)c1O | inconclusive: 23.1 µM [activator, partial curve] |
| Cc1ccc(C(=O)C2CCN(CC(=O)N3CCN(c4ccc(F)cc4)CC3)CC2)cc1 | inconclusive: 29.1 µM [inhibitor, single point] |
| O=C(CNc1ccc2c(c1)OCO2)N/N=C\c1cn(Cc2ccc(F)cc2)c2ccccc12 | inconclusive: 11.6 µM [inhibitor, partial curve, poor fit] |
| COc1ccc(C(=O)N2CCC3(CC2)NCCc2[nH]cnc23)cc1OC | inactive |
| CC(C)OC(=O)CSc1nnc(-c2ccc(C(C)(C)C)cc2)n1N | inconclusive: 23.1 µM [activator, partial curve, poor fit] |
| CCNc1nc(C)nc2c1oc1ccccc12 | inactive |
| O=[N+]([O-])c1ccccc1S(=O)(=O)NCc1cccnc1 | inactive |
| CCc1ccc(N=CC23c4ccccc4C(c4ccccc42)C2C(=O)N(c4ccc(OC)cc4)C(=O)C23)cc1 (centres undefined) | inactive |
| CC(=O)c1ccccc1NC(=O)COC(=O)c1cc(C)oc1C | inconclusive: 31.6 µM [activator, single point] |
| COc1ccc(CCc2nc(C)ccc2O)cc1 | inconclusive: 20.6 µM [activator, partial curve] |
| C=CCNC(=O)N1CCC(n2nccc2NC(=O)CCCc2ccccc2)CC1 | inactive |
| COc1ccccc1-c1nnc2n1N=C(c1ccc(OC(F)F)c(OCC3CC3)c1)CS2 | inactive |
| Cc1cnc(NS(=O)(=O)c2ccccc2)c(Br)c1 | inactive |
| COc1ccc2c(c1)c(C(C)=O)c(C)n2CCc1ccc(OC)c(OC)c1 | inactive |
| CC(C)(C)OC(=O)C[C@@H]1C/C=C\C[C@@H](CC(=O)N(CCO)Cc2ccccc2)C(=O)NCCOC1=O | inactive |
| COc1ccc(/C=C2\SC(=S)N(CCC(=O)NC3CCCC3)C2=O)cc1OC | inactive |
| CCOC(=O)C1=CN(CC)S(=O)(=O)NC1c1cccc(OC)c1 (centres undefined) | inactive |
| O=C(c1ccc(S(=O)(=O)N2CCOCC2)cc1)N1CCN(c2ccc(F)cc2)CC1 | inactive |
| O=C(CCC1CCCN(C(=O)CC2=CCCCC2)C1)N1CCN(c2ccccn2)CC1 (centres undefined) | inconclusive: 23.1 µM [inhibitor, single point] |
| CCOC(=O)/C(C#N)=C/c1cc(C)n(-c2ccccc2)c1C | inconclusive: 1.3 µM [activator, partial curve] |
| N#C/C(C(N)=O)=C1/SC=C(c2ccccc2)N1c1ccccc1 | inconclusive: 16.4 µM [inhibitor, partial curve, poor fit] |
| CCOC(=O)c1ccc(Nc2nc(N)c3cc(OC)c(OC)cc3n2)cc1 | inactive |
| Cc1ccccc1NC(=O)Cc1nnc(SCC(=O)Nc2ccccc2)n1C | inactive |
| CCOc1ccc(OCC)c(NC(=O)c2nnn(CC(=O)Nc3cc(C)cc(C)c3)c2N)c1 | inactive |
| Cc1ccsc1/C=N/NC(=O)c1nnn(-c2nonc2N)c1-c1ccc2c(c1)OCO2 | inconclusive: 23.1 µM [inhibitor, single point] |

Grouped by structure, the compounds so far with a furan ring, fused or not

| Structure (SMILES) | Potency |
| --- | --- |
| CCNc1nc(C)nc2c1oc1ccccc12 | inactive |
| CC(=O)c1ccccc1NC(=O)COC(=O)c1cc(C)oc1C | inconclusive: 31.6 µM [activator, single point] |

Remaining list, next part.

| Structure (SMILES) | Potency |
| --- | --- |
| O=C(CC1CCCCC1)OCn1nnc2ccccc2c1=O | inconclusive: 36.6 µM [activator, partial curve, poor fit] |
| Cc1nc(SCC(=O)N2CCOCC2)c2ccsc2n1 | inconclusive: 35.5 µM [inhibitor, single point] |
| Oc1ccc(O)c2c1C1c3ccccc3C2c2ccccc21 | inconclusive: 13 µM [inhibitor, partial curve] |
| COc1cccc(NC(=O)C2CC2)c1 | inconclusive: 17.8 µM [activator, partial curve, poor fit] |
| CC(CC(=O)NC(C)c1ccc2c(c1)OCCO2)c1ccccc1 (centres undefined) | inactive |
| CCOC(=O)/C(C#N)=C1/C=CN(c2ccc(C)cc2)C=N1 | inconclusive: 16.4 µM [activator, partial curve] |
| Cc1c(N=C2N=C(NC(=O)Nc3ccc(Cl)cc3)c3ccccc32)c(=O)n(-c2ccccc2)n1C | inactive |
| CCOc1ccccc1C(=O)NCC(=O)N1CCC(C)CC1 | inconclusive: 9.2 µM [activator, single point] |
| CC(=O)Nc1ccc(NC(=O)C(C)OC(=O)C(C)SCC(=O)Nc2ccc(C)cc2)cc1 (centres undefined) | inconclusive: 0.231 µM [inhibitor, single point] |
| O=C(NCc1nnc(SCC(=O)N2CCCCC2)o1)c1ccc(F)cc1 | inactive |
| C#CCOc1ccc(CNC[C@H]2O[C@@H](n3cnc4c(N)ncnc43)[C@H](O)[C@@H]2O)cc1 | inactive |
| C/C(N)=C(/C#N)C(=O)CSc1nc(C2CCCCC2)n(-c2ccccc2)n1 | inconclusive: 11.6 µM [inhibitor, partial curve, poor fit] |
| Cn1c(=O)c2c(ncn2CC(O)CNc2ccc(Br)cc2)n(C)c1=O (centres undefined) | inconclusive: 8.2 µM [inhibitor, single point] |
| COc1ccc(CC2C(=O)OC(C)(C)OC2=O)cc1 | inconclusive: 16.4 µM [activator, partial curve, poor fit] |
| Cc1ccnc2nc(C(=O)OCC(=O)NC(=O)NCc3ccco3)nn12 | inactive |
| O=C(CCCC(=O)N1CCN(c2ccc([N+](=O)[O-])cc2)CC1)c1ccccc1 | inactive |
| CCC(=O)NNC(=O)c1c(O)c2ccccc2[nH]c1=O | inactive |
| Cc1cccc(OCC(=O)Nc2ccccc2N2CCCCC2)c1C | inactive |
| Cn1c(=O)n(C)c2cc(S(=O)(=O)N3CCCCC3)ccc21 | inconclusive: 18.3 µM [activator, partial curve] |
| COCCn1c(C2CCCCC2)nc2sc3ccccc3c(=O)c2c1=O | inactive |
| Cc1cccc(C)c1NC(=O)C[n+]1cc(-c2ccccc2)n2c1CCC2 | inconclusive: 6.51 µM [inhibitor, single point] |
| COc1ccc(-c2[nH]n(-c3ccc([N+](=O)[O-])cc3)c(=O)c2C=NCCN2CCNCC2)cc1 | inconclusive: 4.11 µM [activator, full curve] |
| N#C/C(=C\c1cccs1)C(=O)NCc1ccco1 | inconclusive: 18.4 µM [activator, single point] |
| Cc1ccc(C(=O)OCN2C(=O)c3ccccc3C2=O)cc1S(=O)(=O)N1CCOCC1 | inconclusive: 20.6 µM [activator, single point] |
| Cc1cccc(C(=O)Nc2ccc(C(=O)/C=C/c3cccs3)cc2)c1 | inconclusive: 11.6 µM [activator, partial curve] |

Retrieved by structure from the list above (3):

| Structure (SMILES) | Potency |
| --- | --- |
| Cc1c(N=C2N=C(NC(=O)Nc3ccc(Cl)cc3)c3ccccc32)c(=O)n(-c2ccccc2)n1C | inactive |
| Oc1ccc(O)c2c1C1c3ccccc3C2c2ccccc21 | inconclusive: 13 µM [inhibitor, partial curve] |
| CC(=O)Nc1ccc(NC(=O)C(C)OC(=O)C(C)SCC(=O)Nc2ccc(C)cc2)cc1 (centres undefined) | inconclusive: 0.231 µM [inhibitor, single point] |

More compounds

| Structure (SMILES) | Potency |
| --- | --- |
| O=C(N/N=C/C1=C(N2CCOCC2)C(=C\c2ccccc2)/CC1)Nc1ccccc1 | inactive |
| O=C(Nc1nc2ccccc2[nH]1)c1ccccc1[N+](=O)[O-] | inconclusive: 20.6 µM [activator, single point] |
| Cc1n[nH]c(=O)c2c1nnn2Cc1ccccc1Cl | inactive |
| O=C(N/N=C/c1cccnc1)c1ccc2c(c1)OCCO2 | inconclusive: 9.2 µM [activator, partial curve] |
| CCC1CCCCN1CCNC(=O)C1CCCN(S(=O)(=O)c2cccc3nsnc23)C1 (centres undefined) | inconclusive: 25.9 µM [activator, partial curve, poor fit] |
| O=C(CN1CCCCCC1)Nc1ccc(S(=O)(=O)N2CCCCC2)cc1 | inactive |
| CCOc1ccccc1OCCCC(=O)NC1CCCc2ccccc21 (centres undefined) | inactive |
| O=C1c2ccccc2C(=O)C1c1nccc2ccccc12 | inconclusive: 0.092 µM [activator, full curve, poor fit] |
| Cc1cc(NC(=O)COn2nnc3ccc(S(C)(=O)=O)cc32)ccc1Br | inactive |
| Cc1ccc(NC(=O)c2ccc(Cl)c(S(=O)(=O)N3CCCC3)c2)nc1 | inactive |
| Cc1ccc(S(=O)(=O)CCC(=O)Nc2nnc(-c3ccc(F)cc3)o2)cc1 | inactive |
| O=C(Nc1ccccc1)c1cn2ccccc2n1 | inconclusive: 0.58 µM [activator, full curve] |
| O=C(Oc1ccc2ccc(=O)oc2c1)N1CCOCC1 | inconclusive: 20.6 µM [activator, single point] |
| O=C(c1cc2c(s1)-c1ccccc1OC2)N1CCc2ccccc2C1 | inconclusive: 16.4 µM [activator, partial curve] |
| C=CCSc1n[nH]c(-c2ccccc2)n1 | inconclusive: 18.4 µM [activator, partial curve] |
| OCCNc1ncnc2c1c(-c1ccccc1)c(-c1ccccc1)n2Cc1ccco1 | inconclusive: 16.4 µM [inhibitor, partial curve, poor fit] |
| O=C(NC1CC1)c1ccc2c(c1)ncn2C1CCCC1 | inconclusive: 20.6 µM [activator, partial curve] |
| CCC(C)c1ccc2oc(-c3ccc(NC(=O)Cn4cnc5c(=O)n(C)c(=O)n(C)c54)cc3)nc2c1 (centres undefined) | inconclusive: 1.84 µM [activator, partial curve, poor fit] |
| Cc1ccccc1C(=O)Nc1nc(SCc2ccc(Cl)cc2)n[nH]1 | inconclusive: 14.6 µM [activator, partial curve, poor fit] |
| O=C(Nc1nccs1)c1ccc(COc2ccccc2Cl)o1 | inactive |
| C=CCC[C@H](Cc1ccc(F)cc1)C(=O)OC[C@H](Cc1c[nH]c2ccccc12)NC(=O)[C@@H](CC=C)CC(=O)NCCO | active: 20.6 µM |
| O=C(CN1CCN(c2ccc(F)cc2)CC1)Nc1cccnc1Cl | inconclusive: 23.1 µM [inhibitor, single point] |
| CCN1CCN(c2ccc(N3CCN(C(=O)c4ccc(Br)o4)CC3)nn2)CC1 | inactive |
| COc1cc(-c2nc3ccccc3nc2-c2ccc(O)c(OC)c2)ccc1O | inconclusive: 11.6 µM [inhibitor, partial curve] |

From PubChem BioAssay AID504467 (National Center for Advancing Translational Sciences (NCATS), 2011)
